# Measurements as given in the supplement of paper PMC10032668.
# Sequences of proteins named here, by UniProt entry; tags and fusion partners are left off.
# ANAPC7, Q9UJX3, UniProt Q9UJX3, whole entry: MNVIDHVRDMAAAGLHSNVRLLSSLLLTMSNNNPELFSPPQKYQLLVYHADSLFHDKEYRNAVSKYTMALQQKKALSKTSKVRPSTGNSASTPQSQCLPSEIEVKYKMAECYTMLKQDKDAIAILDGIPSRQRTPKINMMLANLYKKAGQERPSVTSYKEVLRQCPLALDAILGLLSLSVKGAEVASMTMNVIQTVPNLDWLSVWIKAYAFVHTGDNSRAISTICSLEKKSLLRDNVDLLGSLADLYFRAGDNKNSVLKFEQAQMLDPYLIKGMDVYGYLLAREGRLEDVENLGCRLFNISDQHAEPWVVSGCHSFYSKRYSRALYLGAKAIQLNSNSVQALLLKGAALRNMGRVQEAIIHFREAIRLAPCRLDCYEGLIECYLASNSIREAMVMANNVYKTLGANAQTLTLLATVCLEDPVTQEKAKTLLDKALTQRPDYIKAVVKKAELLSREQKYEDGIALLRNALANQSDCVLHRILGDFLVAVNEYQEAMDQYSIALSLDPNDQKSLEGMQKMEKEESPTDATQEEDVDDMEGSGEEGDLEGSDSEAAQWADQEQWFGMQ
# DPF2, Q92785, UniProt Q92785, whole entry: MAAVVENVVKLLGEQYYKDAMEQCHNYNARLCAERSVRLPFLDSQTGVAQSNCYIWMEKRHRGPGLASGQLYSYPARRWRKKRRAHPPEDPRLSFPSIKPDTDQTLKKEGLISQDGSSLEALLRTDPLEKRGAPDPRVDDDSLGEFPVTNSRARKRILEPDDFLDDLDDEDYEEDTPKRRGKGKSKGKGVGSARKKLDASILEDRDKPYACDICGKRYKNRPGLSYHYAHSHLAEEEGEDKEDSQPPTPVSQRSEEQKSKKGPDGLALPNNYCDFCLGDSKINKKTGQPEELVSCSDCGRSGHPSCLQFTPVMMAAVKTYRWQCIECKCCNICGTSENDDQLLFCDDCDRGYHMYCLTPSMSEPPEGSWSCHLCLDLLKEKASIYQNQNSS
# GNB2, P62879, UniProt P62879, whole entry: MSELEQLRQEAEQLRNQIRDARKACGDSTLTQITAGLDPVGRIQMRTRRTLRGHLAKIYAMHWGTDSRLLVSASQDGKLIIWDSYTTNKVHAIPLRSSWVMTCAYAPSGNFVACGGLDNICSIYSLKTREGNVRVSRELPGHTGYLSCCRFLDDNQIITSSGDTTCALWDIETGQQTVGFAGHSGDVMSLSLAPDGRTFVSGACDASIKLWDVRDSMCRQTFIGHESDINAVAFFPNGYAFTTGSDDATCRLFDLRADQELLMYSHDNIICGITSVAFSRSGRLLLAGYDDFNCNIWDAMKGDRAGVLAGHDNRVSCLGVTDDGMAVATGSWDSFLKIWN
# KHDRBS1, Q07666, UniProt Q07666, whole entry: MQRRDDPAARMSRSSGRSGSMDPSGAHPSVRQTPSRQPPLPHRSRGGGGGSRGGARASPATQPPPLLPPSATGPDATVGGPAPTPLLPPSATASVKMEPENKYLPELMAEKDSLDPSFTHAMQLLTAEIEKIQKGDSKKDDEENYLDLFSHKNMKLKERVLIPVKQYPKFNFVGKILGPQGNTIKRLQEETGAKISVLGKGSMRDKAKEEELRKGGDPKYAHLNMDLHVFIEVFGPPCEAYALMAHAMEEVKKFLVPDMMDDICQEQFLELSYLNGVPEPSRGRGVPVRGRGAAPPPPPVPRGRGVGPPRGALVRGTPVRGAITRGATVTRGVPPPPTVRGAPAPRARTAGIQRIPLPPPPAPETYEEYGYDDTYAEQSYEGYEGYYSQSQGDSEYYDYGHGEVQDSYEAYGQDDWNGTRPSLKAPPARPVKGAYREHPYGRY
# NDUFA2, O43678, UniProt O43678, whole entry: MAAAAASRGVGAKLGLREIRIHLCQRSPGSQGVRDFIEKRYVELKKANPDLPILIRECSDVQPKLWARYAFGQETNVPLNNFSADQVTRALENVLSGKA
# RAB7A, P51149, UniProt P51149, whole entry: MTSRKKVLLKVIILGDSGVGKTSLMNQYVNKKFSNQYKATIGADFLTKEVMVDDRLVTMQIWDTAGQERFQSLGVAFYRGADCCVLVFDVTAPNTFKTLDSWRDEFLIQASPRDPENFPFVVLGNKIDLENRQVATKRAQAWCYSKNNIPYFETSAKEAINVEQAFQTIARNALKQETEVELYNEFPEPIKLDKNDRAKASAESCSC
# RFC4, P35249, UniProt P35249, whole entry: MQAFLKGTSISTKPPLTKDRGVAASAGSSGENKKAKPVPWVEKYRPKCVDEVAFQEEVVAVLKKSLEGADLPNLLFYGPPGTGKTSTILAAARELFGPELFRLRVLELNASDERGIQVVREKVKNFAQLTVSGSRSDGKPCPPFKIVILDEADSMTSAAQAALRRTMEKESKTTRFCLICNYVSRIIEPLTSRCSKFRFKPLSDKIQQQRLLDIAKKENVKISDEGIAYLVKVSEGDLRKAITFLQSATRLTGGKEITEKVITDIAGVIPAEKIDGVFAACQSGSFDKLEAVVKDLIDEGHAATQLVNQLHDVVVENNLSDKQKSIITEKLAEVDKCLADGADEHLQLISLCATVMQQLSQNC
# ASCC3, Q8N3C0, UniProt Q8N3C0, whole entry: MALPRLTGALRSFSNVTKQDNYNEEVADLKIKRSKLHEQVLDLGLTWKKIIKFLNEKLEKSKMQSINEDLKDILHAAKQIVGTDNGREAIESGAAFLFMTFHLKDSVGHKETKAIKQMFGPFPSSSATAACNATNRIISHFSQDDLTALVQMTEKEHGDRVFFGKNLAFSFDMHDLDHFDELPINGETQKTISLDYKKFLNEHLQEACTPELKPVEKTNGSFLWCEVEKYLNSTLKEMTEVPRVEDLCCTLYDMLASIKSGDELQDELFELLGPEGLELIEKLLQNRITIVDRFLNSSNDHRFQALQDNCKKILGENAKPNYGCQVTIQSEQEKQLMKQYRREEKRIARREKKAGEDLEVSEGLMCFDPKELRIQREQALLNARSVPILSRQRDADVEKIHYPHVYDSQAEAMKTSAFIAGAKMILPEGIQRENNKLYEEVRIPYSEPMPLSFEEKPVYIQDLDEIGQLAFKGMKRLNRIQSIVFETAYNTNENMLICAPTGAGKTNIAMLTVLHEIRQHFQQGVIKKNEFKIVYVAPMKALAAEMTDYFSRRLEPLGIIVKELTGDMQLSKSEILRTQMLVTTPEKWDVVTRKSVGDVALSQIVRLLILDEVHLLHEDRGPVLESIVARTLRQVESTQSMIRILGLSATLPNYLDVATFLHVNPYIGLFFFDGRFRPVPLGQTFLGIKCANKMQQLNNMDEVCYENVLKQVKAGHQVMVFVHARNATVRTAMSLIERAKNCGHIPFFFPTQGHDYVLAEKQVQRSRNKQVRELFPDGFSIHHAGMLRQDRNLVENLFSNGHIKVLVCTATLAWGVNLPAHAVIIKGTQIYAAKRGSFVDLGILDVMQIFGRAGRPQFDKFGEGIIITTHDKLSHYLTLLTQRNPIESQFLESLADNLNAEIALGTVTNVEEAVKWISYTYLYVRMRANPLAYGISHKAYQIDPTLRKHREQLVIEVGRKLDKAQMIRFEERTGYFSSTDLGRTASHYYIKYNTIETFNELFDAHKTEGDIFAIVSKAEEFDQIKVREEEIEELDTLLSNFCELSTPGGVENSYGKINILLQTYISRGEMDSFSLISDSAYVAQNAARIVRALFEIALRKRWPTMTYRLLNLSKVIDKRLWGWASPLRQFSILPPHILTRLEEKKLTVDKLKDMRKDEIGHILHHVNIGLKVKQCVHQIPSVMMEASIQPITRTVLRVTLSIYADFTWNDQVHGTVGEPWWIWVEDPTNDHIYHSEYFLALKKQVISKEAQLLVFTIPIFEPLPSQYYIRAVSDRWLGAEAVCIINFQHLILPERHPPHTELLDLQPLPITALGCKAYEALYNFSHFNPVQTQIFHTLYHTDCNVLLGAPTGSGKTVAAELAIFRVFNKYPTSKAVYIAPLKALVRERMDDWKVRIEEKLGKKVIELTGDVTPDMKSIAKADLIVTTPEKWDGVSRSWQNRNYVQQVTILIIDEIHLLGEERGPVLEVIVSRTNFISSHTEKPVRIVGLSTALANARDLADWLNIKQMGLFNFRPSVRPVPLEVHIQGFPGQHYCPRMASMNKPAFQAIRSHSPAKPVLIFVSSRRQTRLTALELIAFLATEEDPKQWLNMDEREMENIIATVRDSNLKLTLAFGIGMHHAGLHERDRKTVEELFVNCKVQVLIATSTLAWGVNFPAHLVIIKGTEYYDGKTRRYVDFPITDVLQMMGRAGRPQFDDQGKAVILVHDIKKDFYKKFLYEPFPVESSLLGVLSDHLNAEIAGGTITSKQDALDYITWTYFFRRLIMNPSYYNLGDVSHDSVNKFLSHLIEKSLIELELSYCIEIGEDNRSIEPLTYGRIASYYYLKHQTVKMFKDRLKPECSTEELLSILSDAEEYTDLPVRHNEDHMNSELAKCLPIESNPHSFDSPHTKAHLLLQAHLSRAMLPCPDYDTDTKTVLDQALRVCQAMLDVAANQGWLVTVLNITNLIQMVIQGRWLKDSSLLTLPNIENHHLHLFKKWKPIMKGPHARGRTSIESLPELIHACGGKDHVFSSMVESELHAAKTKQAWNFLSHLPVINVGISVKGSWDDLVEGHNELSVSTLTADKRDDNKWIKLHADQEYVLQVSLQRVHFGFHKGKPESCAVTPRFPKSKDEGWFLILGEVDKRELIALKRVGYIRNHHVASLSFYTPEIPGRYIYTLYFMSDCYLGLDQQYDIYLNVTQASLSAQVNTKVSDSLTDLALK
# CD2AP, Q9Y5K6, UniProt Q9Y5K6, whole entry: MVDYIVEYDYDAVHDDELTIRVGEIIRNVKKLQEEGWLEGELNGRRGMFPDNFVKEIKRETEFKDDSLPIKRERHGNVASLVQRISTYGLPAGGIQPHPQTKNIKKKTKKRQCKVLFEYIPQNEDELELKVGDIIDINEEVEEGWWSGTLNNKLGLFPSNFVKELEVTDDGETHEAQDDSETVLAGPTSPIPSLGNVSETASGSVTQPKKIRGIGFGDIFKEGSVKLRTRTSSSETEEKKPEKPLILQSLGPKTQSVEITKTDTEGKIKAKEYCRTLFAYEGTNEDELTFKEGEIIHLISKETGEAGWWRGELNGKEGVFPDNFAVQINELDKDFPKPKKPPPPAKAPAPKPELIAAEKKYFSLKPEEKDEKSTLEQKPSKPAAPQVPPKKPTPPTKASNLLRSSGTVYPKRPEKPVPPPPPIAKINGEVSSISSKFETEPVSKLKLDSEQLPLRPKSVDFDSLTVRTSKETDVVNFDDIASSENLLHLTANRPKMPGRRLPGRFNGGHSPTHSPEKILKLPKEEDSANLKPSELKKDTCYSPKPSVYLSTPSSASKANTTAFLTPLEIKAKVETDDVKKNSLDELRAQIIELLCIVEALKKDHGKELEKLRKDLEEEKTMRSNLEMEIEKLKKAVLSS
# COX7A2, P14406, UniProt P14406, whole entry: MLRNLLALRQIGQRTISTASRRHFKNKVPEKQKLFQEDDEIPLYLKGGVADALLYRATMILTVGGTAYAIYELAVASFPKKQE
# HIST1H1E, P10412, UniProt P10412, whole entry: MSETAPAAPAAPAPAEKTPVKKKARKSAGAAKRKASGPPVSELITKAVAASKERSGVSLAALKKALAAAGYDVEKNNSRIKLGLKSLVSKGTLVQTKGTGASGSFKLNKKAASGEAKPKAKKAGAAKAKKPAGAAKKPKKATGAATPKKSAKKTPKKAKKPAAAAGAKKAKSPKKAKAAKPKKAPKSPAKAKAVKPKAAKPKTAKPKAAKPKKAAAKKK
# PARK7, Q99497, UniProt Q99497, whole entry: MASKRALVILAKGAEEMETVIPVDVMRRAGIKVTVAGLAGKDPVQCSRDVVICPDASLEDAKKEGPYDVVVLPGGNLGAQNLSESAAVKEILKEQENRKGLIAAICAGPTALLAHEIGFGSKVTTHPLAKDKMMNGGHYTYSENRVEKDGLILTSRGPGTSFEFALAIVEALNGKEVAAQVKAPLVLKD
# TUBG1, P23258, UniProt P23258, whole entry: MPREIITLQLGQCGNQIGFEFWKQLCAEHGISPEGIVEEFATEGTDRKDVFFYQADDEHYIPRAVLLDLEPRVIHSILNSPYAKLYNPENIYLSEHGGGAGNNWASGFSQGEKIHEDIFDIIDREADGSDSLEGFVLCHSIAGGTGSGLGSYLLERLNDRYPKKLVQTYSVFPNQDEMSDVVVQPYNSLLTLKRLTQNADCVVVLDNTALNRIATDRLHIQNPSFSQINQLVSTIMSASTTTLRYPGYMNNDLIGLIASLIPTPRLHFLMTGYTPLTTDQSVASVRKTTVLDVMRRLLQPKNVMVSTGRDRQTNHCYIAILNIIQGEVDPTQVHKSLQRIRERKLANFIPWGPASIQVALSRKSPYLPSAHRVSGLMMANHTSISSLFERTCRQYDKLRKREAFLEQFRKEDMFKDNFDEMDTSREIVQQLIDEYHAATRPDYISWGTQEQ
# The other results are listed elsewhere or left out. The list holds hits alone, and they repeat only in part.
# Key:
# Experiment in all cases: PRISMA enrichment of interactor (LFQ) in peptide spot vs all other peptide spots (log2 fold change); higher = stronger / more specific binding of the interactor to the peptide
# [1] = biological target: ACSL3, O95573
# Method: (§1)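 PRISMA: 15-aa overlapping tiles (offset 8 aa) of 60 microproteins, plus SOS1/GLUT1 control peptides, were spot-synthesized on cellulose membranes in triplicate. Membranes were incubated with benzonase-treated HEK293T lysate, and bound proteins were identified by LC-MS/MS with LFQ. Enrichment is the log2 fold change of each protein in one spot versus all other spots. Only interactors passing the significance cutoff are listed.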
# [2] = biological target: ANAPC7, Q9UJX3
# Method: as §1
# [3] = biological target: ANKRD17, O75179
# Method: as §1
# [4] = biological target: BCKDK, O14874
# Method: as §1
# [5] = biological target: BTAF1, O14981
# Method: as §1
# [6] = biological target: CDC73, Q6P1J9
# Method: as §1
# [7] = biological target: CENPE, Q02224
# Method: as §1
# [8] = biological target: CHD1, O14646
# Method: as §1
# [9] = biological target: CHPT1, Q8WUD6
# Method: as §1
# [10] = biological target: COA7, Q96BR5
# Method: as §1
# [11] = biological target: COPG1, Q9Y678
# Method: as §1
# [12] = biological target: DNTTIP2, Q5QJE6
# Method: as §1
# [13] = biological target: DPF2, Q92785
# Method: as §1
# [14] = biological target: ECI2, O75521
# Method: as §1
# [15] = biological target: GNAS
# Method: as §1
# [16] = biological target: GNB2, P62879
# Method: as §1
# [17] = biological target: GRSF1, Q12849
# Method: as §1
# [18] = biological target: KHDRBS1, Q07666
# Method: as §1
# [19] = biological target: NDUFA2, O43678
# Method: as §1
# [20] = biological target: NKRF, O15226
# Method: as §1
# [21] = biological target: OAT, P04181
# Method: as §1
# [22] = biological target: PAICS, P22234
# Method: as §1
# [23] = biological target: QKI, Q96PU8
# Method: as §1
# [24] = biological target: RAB7A, P51149
# Method: as §1
# [25] = biological target: RFC4, P35249
# Method: as §1
# [26] = biological target: RO60, P10155
# Method: as §1
# [27] = biological target: TBL2, Q9Y4P3
# Method: as §1
# [28] = biological target: TNPO3, Q9Y5L0
# Method: as §1
# [29] = biological target: TUFM, P49411
# Method: as §1
# [30] = biological target: UBIAD1, Q9Y5Z9
# Method: as §1
# [31] = biological target: UBR5, O95071
# Method: as §1
# [32] = biological target: WDR6, Q9NNW5
# Method: as §1
# [33] = biological target: ZCCHC10, Q8TBK6
# Method: as §1
# [34] = biological target: ACP1, P24666
# Method: as §1
# [35] = biological target: ANP32A, P39687
# Method: as §1
# [36] = biological target: ARHGEF7, Q14155
# Method: as §1
# [37] = biological target: ASCC3, Q8N3C0
# Method: as §1
# [38] = biological target: BIN1, O00499
# Method: as §1
# [39] = biological target: CD2AP, Q9Y5K6
# Method: as §1
# [40] = biological target: CGGBP1, Q9UFW8
# Method: as §1
# [41] = biological target: CLPTM1, O96005
# Method: as §1
# [42] = biological target: COX7A2, P14406
# Method: as §1
# [43] = biological target: EPS15L1, Q9UBC2
# Method: as §1
# [44] = biological target: FADS1, O60427
# Method: as §1
# [45] = biological target: GRB2, P62993
# Method: as §1
# [46] = biological target: GTPBP10, A4D1E9
# Method: as §1
# [47] = biological target: HIST1H1E, P10412
# Method: as §1
# [48] = biological target: NCK1, P16333
# Method: as §1
# [49] = biological target: NOM1, Q5C9Z4
# Method: as §1
# [50] = biological target: PACSIN2, Q9UNF0
# Method: as §1
# [51] = biological target: PACSIN3, Q9UKS6
# Method: as §1
# [52] = biological target: PARK7, Q99497
# Method: as §1
# [53] = biological target: PRIM1, P49642
# Method: as §1
# [54] = biological target: PSMA7, O14818
# Method: as §1
# [55] = biological target: RBM12B, Q8IXT5
# Method: as §1
# [56] = biological target: RUSC1, Q9BVN2
# Method: as §1
# [57] = biological target: SH3GL1, Q99961
# Method: as §1
# [58] = biological target: SNX9, Q9Y5X1
# Method: as §1
# [59] = biological target: TUBG1, P23258
# Method: as §1
binder,measurement,setting,value
SLGLSNLQKSQIQGK [MKKS],PRISMA enrichment of interactor (log2),[1],5.29
same,PRISMA enrichment of interactor (log2),[2],7.95
same,PRISMA enrichment of interactor (log2),[3],5.89
same,PRISMA enrichment of interactor (log2),[4],7.09
same,PRISMA enrichment of interactor (log2),[5],4.54
same,PRISMA enrichment of interactor (log2),[6],4.69
same,PRISMA enrichment of interactor (log2),[7],5.25
same,PRISMA enrichment of interactor (log2),[8],4.63
same,PRISMA enrichment of interactor (log2),[9],5.87
same,PRISMA enrichment of interactor (log2),[10],5.68
same,PRISMA enrichment of interactor (log2),[11],4.97
same,PRISMA enrichment of interactor (log2),[12],5.37
same,PRISMA enrichment of interactor (log2),[13],6.22
same,PRISMA enrichment of interactor (log2),[14],4.33
same,PRISMA enrichment of interactor (log2),[15],6.43
same,PRISMA enrichment of interactor (log2),[16],4.46
same,PRISMA enrichment of interactor (log2),[17],4.82
same,PRISMA enrichment of interactor (log2),[18],6.21
same,PRISMA enrichment of interactor (log2),[19],3.77
same,PRISMA enrichment of interactor (log2),[20],4.7
same,PRISMA enrichment of interactor (log2),[21],6.06
same,PRISMA enrichment of interactor (log2),[22],5.23
same,PRISMA enrichment of interactor (log2),[23],4.49
same,PRISMA enrichment of interactor (log2),[24],6.03
same,PRISMA enrichment of interactor (log2),[25],5.87
same,PRISMA enrichment of interactor (log2),[26],4.48
same,PRISMA enrichment of interactor (log2),[27],5.35
same,PRISMA enrichment of interactor (log2),[28],8.04
same,PRISMA enrichment of interactor (log2),[29],5.49
same,PRISMA enrichment of interactor (log2),[30],6.4
same,PRISMA enrichment of interactor (log2),[31],3.93
same,PRISMA enrichment of interactor (log2),[32],4.99
same,PRISMA enrichment of interactor (log2),[33],4.86
EVPVPPPVPPRRRP [SOS1_WT_2],PRISMA enrichment of interactor (log2),[34],4.93
same,PRISMA enrichment of interactor (log2),[35],6.02
same,PRISMA enrichment of interactor (log2),[36],3.62
same,PRISMA enrichment of interactor (log2),[37],5.35
same,PRISMA enrichment of interactor (log2),[38],4.12
same,PRISMA enrichment of interactor (log2),[39],6.42
same,PRISMA enrichment of interactor (log2),[40],5.31
same,PRISMA enrichment of interactor (log2),[41],4.44
same,PRISMA enrichment of interactor (log2),[42],4.67
same,PRISMA enrichment of interactor (log2),[43],3.81
same,PRISMA enrichment of interactor (log2),[44],5.37
same,PRISMA enrichment of interactor (log2),[45],7.04
same,PRISMA enrichment of interactor (log2),[46],5.27
same,PRISMA enrichment of interactor (log2),[47],5.53
same,PRISMA enrichment of interactor (log2),[48],3.76
same,PRISMA enrichment of interactor (log2),[49],7.11
same,PRISMA enrichment of interactor (log2),[50],7.74
same,PRISMA enrichment of interactor (log2),[51],4.32
same,PRISMA enrichment of interactor (log2),[52],5.11
same,PRISMA enrichment of interactor (log2),[53],4.89
same,PRISMA enrichment of interactor (log2),[54],6.16
same,PRISMA enrichment of interactor (log2),[55],6.85
same,PRISMA enrichment of interactor (log2),[56],6.32
same,PRISMA enrichment of interactor (log2),[57],6.06
same,PRISMA enrichment of interactor (log2),[58],4.4
same,PRISMA enrichment of interactor (log2),[59],5.44

# Already shown: entries from further up.
binder,measurement,setting,value
EVPVPPPVPPRRRP [SOS1_WT_2],PRISMA enrichment of interactor (log2),[37],5.35
same,PRISMA enrichment of interactor (log2),[38],4.12
